The list shows only some results of the screen, not a fair sample: it gathers tests that were run many times, whatever their T/C, doses with no T/C, and many T/C values between a quarter and a half above the control. Further doses and runs are listed elsewhere. T/C: endpoint of the treated group in % of that of the vehicle group. Some entries give survivors of the animals treated and no T/C: the source holds a T/C of zero for them, seemingly a mark for toxic or unscored doses. Some survivor counts are full or nearly so, which does not show that the dose was tolerated: survival well below the control is almost never listed, so the zero probably covers shortened survival too. Survivors were counted at the toxicity check, usually on the fifth day, unless a day is given; later deaths do not show. Schedules are NCI's codes, taken here to give the interval after Q, in days (D) or hours (H), and the number of doses after X. Some doses were run more than once; their values stand side by side, smallest first. Some structures stand for samples that the source files as different forms (salt, stereo form or complex); doses refer to the form tested. Where survival is the endpoint, this PubChem deposit counts one and a half times the control or more as active, and values a quarter to a half above the control carry no call in these data; other NCI protocols may use other cut-offs. Some T/C values are followed by the survivors on the day toxicity was checked, most often the fifth; where none is given, no animal had died by that day.
System: B6C3F1 mice, ip Sarcoma M5076, median survival T/C
Experiment: NCI In Vivo Anticancer Drug Screen. Data for tumor model Sarcoma M5076 (intraperitoneal) in B6C3F1 mice
Details: T/C endpoint: median survival time, higher T/C = longer survival
Outline: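 Transplantable tumour in mice; compound-treated vs vehicle-treated groups. Read-out: survival. Value = treated/control ratio.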

[1] = dose: 24.0 mg/kg/injection, schedule: Q04DX005 (ip), vehicle: Klucel (hydroxypropylcellulose) (HPC)
[2] = dose: 800.0 mg/kg/injection, schedule: Q04DX004 (ip), vehicle: saline with Tween-80
[3] = dose: 200.0 mg/kg/injection, schedule: Q04DX004 (ip), vehicle: Klucel (hydroxypropylcellulose) (HPC)

## COc1cc2c(c(OC)c1O)-c1ccc(OC)c(=O)cc1[C@@H](NC(=O)C(F)(F)F)CC2
dose: 1.25 mg/kg/injection, schedule: Q04DX004 (ip), vehicle: Klucel (hydroxypropylcellulose) (HPC)
  T/C: 126 % of control
dose: 2.5 mg/kg/injection, schedule: Q04DX004 (ip), vehicle: Klucel (hydroxypropylcellulose) (HPC)
  T/C: 137 % of control
dose: 5.0 mg/kg/injection, schedule: Q04DX004 (ip), vehicle: Klucel (hydroxypropylcellulose) (HPC)
  T/C: 137 % of control [9 of 10 alive on day 14]
dose: 10.0 mg/kg/injection, schedule: Q04DX004 (ip), vehicle: Klucel (hydroxypropylcellulose) (HPC)
  T/C: 144 % of control
dose: 12.0 mg/kg/injection, schedule: Q04DX004 (ip), vehicle: Klucel (hydroxypropylcellulose) (HPC)
  survivor count: 6 of 10 on day 14
dose: 20.0 mg/kg/injection, schedule: Q04DX004 (ip), vehicle: Klucel (hydroxypropylcellulose) (HPC)
  T/C: 149 % of control [8 of 10 alive on day 14]
dose: 33.33 mg/kg/injection, schedule: Q04DX004 (ip), vehicle: Klucel (hydroxypropylcellulose) (HPC)
  survivor count: 6 of 10 on day 14

## CC1CCC(NC(=O)N(CCCl)N=O)CC1 (stereo not drawn)
dose: 1.5 mg/kg/injection, schedule: Q04DX004 (ip), vehicle: Klucel (hydroxypropylcellulose) (HPC)
  T/C: 128 and 143 % of control
dose: 3.0 mg/kg/injection, schedule: Q04DX004 (ip), vehicle: Klucel (hydroxypropylcellulose) (HPC), evaluated on day 60
  T/C: 145 and 158 % of control
dose: 3.0 mg/kg/injection, schedule: Q04DX004 (ip), vehicle: Klucel (hydroxypropylcellulose) (HPC), evaluated on day 75
  T/C: 113, 127, 137, 147, 165 [9 of 10 alive on day 14], 185 % of control
dose: 3.0 mg/kg/injection, schedule: Q04DX005 (ip), vehicle: Klucel (hydroxypropylcellulose) (HPC)
  T/C: 133, 139, 168, 214 % of control
dose: 6.0 mg/kg/injection, schedule: Q04DX004 (ip), vehicle: Klucel (hydroxypropylcellulose) (HPC), evaluated on day 60
  T/C: 194, 234, 241 % of control
dose: 6.0 mg/kg/injection, schedule: Q04DX004 (ip), vehicle: Klucel (hydroxypropylcellulose) (HPC), evaluated on day 75
  T/C: 131, 152, 190, 205, 221, 278 % of control
dose: 6.0 mg/kg/injection, schedule: Q04DX005 (ip), vehicle: Klucel (hydroxypropylcellulose) (HPC)
  T/C: 147, 183, 188, 268 % of control
dose: 12.0 mg/kg/injection, schedule: Q04DX004 (ip), vehicle: Klucel (hydroxypropylcellulose) (HPC), evaluated on day 60
  T/C: 217, 234, 254 % of control
dose: 12.0 mg/kg/injection, schedule: Q04DX004 (ip), vehicle: Klucel (hydroxypropylcellulose) (HPC), evaluated on day 75
  T/C: 162, 197, 221, 269, 303, 353 % of control
dose: 12.0 mg/kg/injection, schedule: Q04DX005 (ip), vehicle: Klucel (hydroxypropylcellulose) (HPC)
  T/C: 221, 268, 269, 353 % of control
dose: 24.0 mg/kg/injection, schedule: Q01DX004 (ip), vehicle: Klucel (hydroxypropylcellulose) (HPC)
  T/C: 141 % of control
dose: 24.0 mg/kg/injection, schedule: Q04DX004 (ip), vehicle: Klucel (hydroxypropylcellulose) (HPC), evaluated on day 60
  T/C: 234, 241 [9 of 10 alive on day 14], 254 % of control
dose: 24.0 mg/kg/injection, schedule: Q04DX004 (ip), vehicle: Klucel (hydroxypropylcellulose) (HPC), evaluated on day 75
  T/C: 87, 221, 303, 315, 339, 353 % of control
[1]
  T/C: 221 and 353 % of control
  survivor count: 9 of 10 on day 9 and 10 of 10 on day 9
dose: 48.0 mg/kg/injection, schedule: Q04DX004 (ip), vehicle: Klucel (hydroxypropylcellulose) (HPC)
  survivor count: 5 of 10 on day 14

## COc1cc(C(CC(C)=O)c2cc3c(cc2OC(C)=O)OCO3)cc(OC)c1OC (stereo not drawn) (tested in a mixture with another compound)
dose: 125.0 mg/kg/injection, schedule: Q04DX004 (ip), vehicle: saline with Tween-80
  survivor count: 6 of 10 on day 14
dose: 208.33 mg/kg/injection, schedule: Q04DX004 (ip), vehicle: saline with Tween-80
  survivor count: 2 of 10 on day 14

## O=c1/c(=C\C=C\c2ccccc2)sc2n1CCN=2
[2]
  survivor count: 0 of 10 on day 14

## C[n+]1c2cc(N)ccc2cc2ccc(N)cc21
dose: 3.0 mg/kg/injection, schedule: Q04DX004 (ip), vehicle: saline
  T/C: 128 and 132 % of control
dose: 12.0 mg/kg/injection, schedule: Q04DX004 (ip), vehicle: saline
  T/C: 128 % of control [8 of 10 alive on day 14]
dose: 24.0 mg/kg/injection, schedule: Q04DX004 (ip), vehicle: saline
  survivor count: 6 of 10 on day 14
dose: 48.0 mg/kg/injection, schedule: Q04DX004 (ip), vehicle: saline
  survivor count: 0 of 10 on day 14

## CN(C)CCOCC(O)(c1ccccc1)c1ccccc1
dose: 150.0 mg/kg/injection, schedule: Q04DX004 (ip), vehicle: saline
  survivor count: 4 of 10 on day 14
dose: 300.0 mg/kg/injection, schedule: Q04DX004 (ip), vehicle: saline
  survivor count: 0 of 10 on day 14
dose: 600.0 mg/kg/injection, schedule: Q04DX004 (ip), vehicle: saline
  survivor count: 0 of 10 on day 14

## COC12[C@@H]3N[C@@H]3CN1C1=C(C(=O)C(NCCSSCCNC3=C(C)C(=O)C4=C(C3=O)C(COC(N)=O)[C@]3(OC)C5N[C@@H]5CN43)=C(C)C1=O)[C@@H]2COC(N)=O (stereo partly drawn)
dose: 1.5 mg/kg/injection, schedule: Q04DX004 (ip), vehicle: other
  T/C: 129 % of control
dose: 1.56 mg/kg/injection, schedule: Q04DX004 (ip), vehicle: other
  T/C: 130 % of control
dose: 3.12 mg/kg/injection, schedule: Q04DX004 (ip), vehicle: other
  T/C: 143 % of control
dose: 6.25 mg/kg/injection, schedule: Q04DX004 (ip), vehicle: other
  T/C: 143 % of control
dose: 24.0 mg/kg/injection, schedule: Q04DX004 (ip), vehicle: other
  survivor count: 0 of 10 on day 14
dose: 25.0 mg/kg/injection, schedule: Q04DX004 (ip), vehicle: other
  survivor count: 8 of 10 on day 14

## O=C1c2c(O)ccc(O)c2C(=O)c2c(NCCNCCO)ccc(NCCNCCO)c21
dose: 4.0 mg/kg/injection, schedule: Q04DX004 (ip), vehicle: water
  survivor count: 10 of 10 on day 14
dose: 4.0 mg/kg/injection, schedule: Q04DX005 (ip), vehicle: saline
  survivor count: 8 of 8 on day 17
dose: 8.0 mg/kg/injection, schedule: Q04DX004 (ip), vehicle: water
  survivor count: 1 of 10 on day 14

## O=CC(NC(=O)N(CCCl)N=O)C(O)C(O)C(O)CO (stereo not drawn)
dose: 20.0 mg/kg/injection, schedule: Q04DX005 (ip), vehicle: saline
  survivor count: 8 of 8 on day 17

## CC(=O)Oc1ccccc1O
dose: 100.0 mg/kg/injection, schedule: Q04DX004 (ip), vehicle: saline + Tween-80 + alcohol
  survivor count: 10 of 10 on day 9

## O=C(N/N=C/c1ccc(O)cc1)c1ccc(OCc2nc3ccccc3[nH]2)cc1
dose: 50.0 mg/kg/injection, schedule: Q04DX004 (ip), vehicle: Klucel (hydroxypropylcellulose) (HPC)
  survivor count: 10 of 10 on day 14
[3]
  survivor count: 10 of 10 on day 14

## CC(=O)C1C(=O)C(=O)N(c2ccc(C)cc2C)C1=O (stereo not drawn)
[3]
  survivor count: 5 of 10 on day 14
dose: 400.0 mg/kg/injection, schedule: Q04DX004 (ip), vehicle: Klucel (hydroxypropylcellulose) (HPC)
  survivor count: 3 of 10 on day 14
dose: 800.0 mg/kg/injection, schedule: Q04DX004 (ip), vehicle: Klucel (hydroxypropylcellulose) (HPC)
  survivor count: 0 of 10 on day 14

## c1ccc(OCC2CO2)c(OCC2CO2)c1 (stereo not drawn)
dose: 25.0 mg/kg/injection, schedule: Q04DX004 (ip), vehicle: saline with Tween-80
  T/C: 127 % of control
dose: 400.0 mg/kg/injection, schedule: Q04DX004 (ip), vehicle: saline with Tween-80
  survivor count: 0 of 10 on day 14 and 3 of 10 on day 14
[2]
  survivor count: 0 of 10 on day 14

## CC(CNC(=O)C12CC3CC(CC(C3)C1)C2)NC(=O)C12CC3CC(CC(C3)C1)C2 (stereo not drawn)
dose: 400.0 mg/kg/injection, schedule: Q04DX004 (ip), vehicle: other
  survivor count: 9 of 10 on day 14

## OCCOCCN1CCN(CCCN2c3ccccc3Sc3ccc(C(F)(F)F)cc32)CC1
dose: 120.0 mg/kg/injection, schedule: Q04DX004 (ip), vehicle: saline
  survivor count: 0 of 10 on day 14 and 7 of 10 on day 14

## ClC1(Cl)Cc2ccccc21
[2]
  survivor count: 0 of 10 on day 14

## O=C(O)[C@H](Cc1ccccc1)N1C(=O)c2ccccc2C1=O
dose: 500.0 mg/kg/injection, schedule: Q04DX004 (ip), vehicle: DMSO
  survivor count: 10 of 10 on day 14
dose: 1000.0 mg/kg/injection, schedule: Q04DX004 (ip), vehicle: DMSO
  survivor count: 8 of 9 on day 14

## CC1(C)CC(OS(C)(=O)=O)CC(C)(C)N1O
dose: 300.0 mg/kg/injection, schedule: Q04DX004 (ip), vehicle: Klucel (hydroxypropylcellulose) (HPC)
  survivor count: 0 of 10 on day 14

Reference: PubChem BioAssay AID292 (DTP/NCI, 2004)
